In the supplement of paper PMC6411743:
± gives the standard deviation of the averaged measurements. This is one part of the list.

Sequences of proteins named here, by UniProt entry; tags and fusion partners are left off. A change or cut given only in a name is not applied to a line headed by its entry.
UniProt O60911: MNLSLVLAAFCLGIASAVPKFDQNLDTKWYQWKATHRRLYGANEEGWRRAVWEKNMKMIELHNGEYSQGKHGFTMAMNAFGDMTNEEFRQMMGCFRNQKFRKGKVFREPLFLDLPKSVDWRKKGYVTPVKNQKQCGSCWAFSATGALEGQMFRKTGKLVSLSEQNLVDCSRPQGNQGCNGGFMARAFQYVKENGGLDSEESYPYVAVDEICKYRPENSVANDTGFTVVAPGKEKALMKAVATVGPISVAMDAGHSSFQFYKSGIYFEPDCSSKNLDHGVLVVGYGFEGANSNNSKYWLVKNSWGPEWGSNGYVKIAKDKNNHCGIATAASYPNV
UniProt O96017, whole entry: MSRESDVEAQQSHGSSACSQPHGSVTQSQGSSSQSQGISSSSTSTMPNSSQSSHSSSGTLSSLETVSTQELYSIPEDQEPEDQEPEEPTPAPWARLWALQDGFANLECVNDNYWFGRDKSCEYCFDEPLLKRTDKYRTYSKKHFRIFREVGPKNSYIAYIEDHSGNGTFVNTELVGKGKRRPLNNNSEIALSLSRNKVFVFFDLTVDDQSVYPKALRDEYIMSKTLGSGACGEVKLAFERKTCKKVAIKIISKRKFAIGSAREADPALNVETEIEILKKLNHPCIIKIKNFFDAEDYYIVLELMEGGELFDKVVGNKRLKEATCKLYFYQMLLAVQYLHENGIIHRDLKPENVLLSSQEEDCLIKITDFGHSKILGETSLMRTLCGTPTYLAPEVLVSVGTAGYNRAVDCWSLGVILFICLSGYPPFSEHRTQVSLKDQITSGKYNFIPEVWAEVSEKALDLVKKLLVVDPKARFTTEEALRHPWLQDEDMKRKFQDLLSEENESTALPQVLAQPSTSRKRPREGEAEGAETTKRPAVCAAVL
UniProt O75367, whole entry: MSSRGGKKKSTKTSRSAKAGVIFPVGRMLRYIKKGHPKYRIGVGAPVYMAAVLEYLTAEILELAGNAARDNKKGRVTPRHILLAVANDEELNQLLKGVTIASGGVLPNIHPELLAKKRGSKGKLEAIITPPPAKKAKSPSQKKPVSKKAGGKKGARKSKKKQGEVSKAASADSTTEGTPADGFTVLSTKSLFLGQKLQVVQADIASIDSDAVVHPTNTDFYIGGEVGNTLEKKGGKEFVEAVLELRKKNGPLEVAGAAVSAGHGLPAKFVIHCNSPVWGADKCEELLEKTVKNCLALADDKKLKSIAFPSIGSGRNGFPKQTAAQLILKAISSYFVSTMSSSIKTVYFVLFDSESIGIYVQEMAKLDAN
UniProt O75208: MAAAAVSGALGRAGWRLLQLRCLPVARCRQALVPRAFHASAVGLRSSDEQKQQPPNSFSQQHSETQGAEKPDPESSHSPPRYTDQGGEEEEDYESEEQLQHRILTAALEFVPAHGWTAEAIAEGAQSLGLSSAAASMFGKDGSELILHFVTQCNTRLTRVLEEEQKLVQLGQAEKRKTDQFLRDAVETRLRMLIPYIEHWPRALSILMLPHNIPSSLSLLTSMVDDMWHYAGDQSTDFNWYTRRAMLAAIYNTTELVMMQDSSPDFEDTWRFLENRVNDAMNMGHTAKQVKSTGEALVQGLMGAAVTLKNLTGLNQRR
UniProt O75054: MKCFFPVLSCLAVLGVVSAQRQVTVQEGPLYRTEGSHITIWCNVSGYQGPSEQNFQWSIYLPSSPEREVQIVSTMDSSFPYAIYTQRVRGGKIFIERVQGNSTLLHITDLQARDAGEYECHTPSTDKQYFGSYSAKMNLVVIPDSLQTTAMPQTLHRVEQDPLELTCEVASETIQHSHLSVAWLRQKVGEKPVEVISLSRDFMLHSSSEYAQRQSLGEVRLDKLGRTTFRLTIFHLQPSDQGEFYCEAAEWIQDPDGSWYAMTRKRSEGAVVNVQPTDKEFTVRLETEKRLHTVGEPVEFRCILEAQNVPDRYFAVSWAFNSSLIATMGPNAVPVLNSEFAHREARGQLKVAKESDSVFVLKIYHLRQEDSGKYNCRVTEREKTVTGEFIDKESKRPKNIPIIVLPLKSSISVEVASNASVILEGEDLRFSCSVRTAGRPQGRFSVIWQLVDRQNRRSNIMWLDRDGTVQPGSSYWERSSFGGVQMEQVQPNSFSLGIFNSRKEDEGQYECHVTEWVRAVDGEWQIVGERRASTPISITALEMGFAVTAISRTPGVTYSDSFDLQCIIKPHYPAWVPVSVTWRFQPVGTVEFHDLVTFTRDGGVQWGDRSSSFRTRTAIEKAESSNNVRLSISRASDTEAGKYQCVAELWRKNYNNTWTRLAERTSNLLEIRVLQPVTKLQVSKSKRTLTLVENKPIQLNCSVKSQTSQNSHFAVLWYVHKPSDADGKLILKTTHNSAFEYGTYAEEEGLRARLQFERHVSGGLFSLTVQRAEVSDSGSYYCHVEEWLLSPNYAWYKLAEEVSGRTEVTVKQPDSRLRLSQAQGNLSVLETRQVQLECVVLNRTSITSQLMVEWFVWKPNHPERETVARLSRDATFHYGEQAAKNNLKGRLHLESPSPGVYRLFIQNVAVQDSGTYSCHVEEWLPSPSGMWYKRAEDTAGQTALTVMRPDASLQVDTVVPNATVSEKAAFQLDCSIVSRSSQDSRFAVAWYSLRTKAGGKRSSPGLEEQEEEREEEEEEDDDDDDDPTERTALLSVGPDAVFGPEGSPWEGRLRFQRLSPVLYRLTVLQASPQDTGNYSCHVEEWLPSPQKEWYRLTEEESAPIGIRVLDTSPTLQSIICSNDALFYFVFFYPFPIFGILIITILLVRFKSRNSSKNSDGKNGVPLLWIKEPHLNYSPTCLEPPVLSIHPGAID
UniProt O75489, whole entry: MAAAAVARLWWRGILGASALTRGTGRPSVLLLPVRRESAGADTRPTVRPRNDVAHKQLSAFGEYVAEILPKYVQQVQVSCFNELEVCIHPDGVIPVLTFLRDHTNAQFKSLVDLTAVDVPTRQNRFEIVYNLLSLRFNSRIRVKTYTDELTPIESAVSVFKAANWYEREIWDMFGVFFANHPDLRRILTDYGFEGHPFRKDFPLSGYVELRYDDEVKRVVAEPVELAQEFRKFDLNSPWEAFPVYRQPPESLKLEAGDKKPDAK
UniProt O95376: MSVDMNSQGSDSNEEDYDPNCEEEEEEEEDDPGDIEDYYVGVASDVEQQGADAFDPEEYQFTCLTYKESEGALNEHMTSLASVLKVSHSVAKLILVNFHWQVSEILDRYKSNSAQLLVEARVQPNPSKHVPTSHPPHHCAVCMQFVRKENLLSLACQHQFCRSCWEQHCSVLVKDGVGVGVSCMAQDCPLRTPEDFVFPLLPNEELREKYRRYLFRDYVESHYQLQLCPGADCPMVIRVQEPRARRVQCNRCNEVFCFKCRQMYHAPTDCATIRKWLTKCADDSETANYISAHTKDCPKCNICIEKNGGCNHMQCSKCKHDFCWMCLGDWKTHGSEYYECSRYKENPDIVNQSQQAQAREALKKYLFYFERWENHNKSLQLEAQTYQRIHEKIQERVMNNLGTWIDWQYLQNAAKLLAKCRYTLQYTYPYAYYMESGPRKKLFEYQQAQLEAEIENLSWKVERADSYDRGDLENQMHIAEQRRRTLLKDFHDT
UniProt O75175, whole entry: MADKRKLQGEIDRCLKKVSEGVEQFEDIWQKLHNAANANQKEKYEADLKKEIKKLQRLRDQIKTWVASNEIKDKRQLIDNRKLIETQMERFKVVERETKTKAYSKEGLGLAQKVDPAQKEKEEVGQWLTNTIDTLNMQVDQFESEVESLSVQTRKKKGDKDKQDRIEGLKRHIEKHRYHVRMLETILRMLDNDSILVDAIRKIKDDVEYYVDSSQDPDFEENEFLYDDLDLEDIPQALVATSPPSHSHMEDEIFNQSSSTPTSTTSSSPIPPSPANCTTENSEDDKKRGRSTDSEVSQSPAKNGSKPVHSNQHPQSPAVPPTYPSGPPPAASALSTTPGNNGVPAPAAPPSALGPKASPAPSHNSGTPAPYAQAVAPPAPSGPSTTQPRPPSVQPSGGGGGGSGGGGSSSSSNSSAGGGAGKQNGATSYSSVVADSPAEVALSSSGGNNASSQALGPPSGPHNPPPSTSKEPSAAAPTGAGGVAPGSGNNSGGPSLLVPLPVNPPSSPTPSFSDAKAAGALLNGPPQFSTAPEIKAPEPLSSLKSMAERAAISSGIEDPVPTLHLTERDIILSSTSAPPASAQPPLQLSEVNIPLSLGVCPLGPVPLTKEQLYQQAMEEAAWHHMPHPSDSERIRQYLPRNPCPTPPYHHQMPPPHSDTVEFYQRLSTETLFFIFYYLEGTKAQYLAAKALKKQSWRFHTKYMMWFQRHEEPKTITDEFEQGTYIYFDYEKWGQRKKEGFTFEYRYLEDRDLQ
UniProt P04424, whole entry: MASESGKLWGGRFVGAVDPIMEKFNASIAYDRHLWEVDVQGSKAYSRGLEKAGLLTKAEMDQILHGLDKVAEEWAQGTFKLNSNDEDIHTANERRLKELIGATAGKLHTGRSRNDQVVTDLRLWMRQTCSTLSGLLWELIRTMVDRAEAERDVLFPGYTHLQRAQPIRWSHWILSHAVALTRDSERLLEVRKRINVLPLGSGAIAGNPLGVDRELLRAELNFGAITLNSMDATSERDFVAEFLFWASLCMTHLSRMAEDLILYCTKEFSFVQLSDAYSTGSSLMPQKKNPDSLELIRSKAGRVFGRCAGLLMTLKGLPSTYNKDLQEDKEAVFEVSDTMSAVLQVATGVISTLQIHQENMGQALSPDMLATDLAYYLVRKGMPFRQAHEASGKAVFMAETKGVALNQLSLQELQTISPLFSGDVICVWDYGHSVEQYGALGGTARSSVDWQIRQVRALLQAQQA
UniProt O75351, whole entry: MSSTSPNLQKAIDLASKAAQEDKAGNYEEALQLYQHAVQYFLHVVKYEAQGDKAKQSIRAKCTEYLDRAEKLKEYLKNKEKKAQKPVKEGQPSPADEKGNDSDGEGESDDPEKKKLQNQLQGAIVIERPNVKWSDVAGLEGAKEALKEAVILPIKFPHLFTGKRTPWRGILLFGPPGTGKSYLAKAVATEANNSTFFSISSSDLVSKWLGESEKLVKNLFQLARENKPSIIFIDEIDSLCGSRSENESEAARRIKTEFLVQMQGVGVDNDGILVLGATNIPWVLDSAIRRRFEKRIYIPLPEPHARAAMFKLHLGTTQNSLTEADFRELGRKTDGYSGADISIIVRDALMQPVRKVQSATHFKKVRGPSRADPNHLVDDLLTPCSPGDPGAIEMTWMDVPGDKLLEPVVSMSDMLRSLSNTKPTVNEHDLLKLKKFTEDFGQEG
UniProt O75131: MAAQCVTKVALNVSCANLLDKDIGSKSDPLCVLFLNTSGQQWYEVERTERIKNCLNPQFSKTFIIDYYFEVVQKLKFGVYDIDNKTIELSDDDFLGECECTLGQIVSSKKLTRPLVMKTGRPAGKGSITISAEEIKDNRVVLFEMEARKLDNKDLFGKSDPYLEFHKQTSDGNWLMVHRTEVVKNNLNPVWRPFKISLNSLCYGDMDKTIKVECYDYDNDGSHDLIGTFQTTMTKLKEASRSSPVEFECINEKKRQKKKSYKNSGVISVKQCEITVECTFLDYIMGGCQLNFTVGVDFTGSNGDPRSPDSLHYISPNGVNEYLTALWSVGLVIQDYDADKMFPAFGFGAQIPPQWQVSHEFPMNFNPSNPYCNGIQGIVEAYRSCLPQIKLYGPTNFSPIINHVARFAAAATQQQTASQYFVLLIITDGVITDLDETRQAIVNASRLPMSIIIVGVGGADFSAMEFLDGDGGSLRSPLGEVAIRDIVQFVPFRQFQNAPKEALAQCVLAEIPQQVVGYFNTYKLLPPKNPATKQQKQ
UniProt O75191: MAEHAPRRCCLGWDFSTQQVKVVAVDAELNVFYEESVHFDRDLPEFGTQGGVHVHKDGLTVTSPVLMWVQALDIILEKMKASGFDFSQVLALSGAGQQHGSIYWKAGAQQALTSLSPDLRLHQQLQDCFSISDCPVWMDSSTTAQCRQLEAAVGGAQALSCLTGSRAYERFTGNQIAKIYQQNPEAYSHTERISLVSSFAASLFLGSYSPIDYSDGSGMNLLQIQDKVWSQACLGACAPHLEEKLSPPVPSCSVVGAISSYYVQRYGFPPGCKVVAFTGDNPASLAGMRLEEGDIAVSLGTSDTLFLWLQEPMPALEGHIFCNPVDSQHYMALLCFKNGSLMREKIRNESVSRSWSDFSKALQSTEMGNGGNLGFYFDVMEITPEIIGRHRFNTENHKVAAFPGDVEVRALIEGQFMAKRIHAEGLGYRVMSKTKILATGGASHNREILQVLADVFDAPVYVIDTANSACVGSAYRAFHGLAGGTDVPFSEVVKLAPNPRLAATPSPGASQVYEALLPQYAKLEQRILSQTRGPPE
UniProt O95456: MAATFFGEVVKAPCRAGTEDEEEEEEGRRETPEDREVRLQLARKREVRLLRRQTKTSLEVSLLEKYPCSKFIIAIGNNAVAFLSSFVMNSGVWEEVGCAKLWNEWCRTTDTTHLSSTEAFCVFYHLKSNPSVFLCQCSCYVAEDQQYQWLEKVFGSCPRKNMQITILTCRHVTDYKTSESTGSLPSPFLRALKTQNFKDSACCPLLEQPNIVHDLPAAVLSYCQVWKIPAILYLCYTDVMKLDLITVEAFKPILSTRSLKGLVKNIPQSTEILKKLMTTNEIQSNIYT

Compound: Nc1nc2c(ncn2[C@@H]2O[C@H](COP(=O)(O)OP(=O)(O)OP(=O)(O)O)[C@@H](O)[C@H]2O)c(=O)[nH]1 [guanosine triphosphate]
Experiment: NP40-soluble protein abundance relative to vehicle (solubility fold change) (ratio); higher = more soluble protein in presence of GTP
Procedure, shortened: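 Each value is a fold change relative to the detergent-processed vehicle, calculated per replicate from vsn-normalised intensities. Jurkat crude lysate received eight concentrations (0.1 to 10 mM) for 10 min at room temperature and 3 min at 37 °C, then was solubilised in 0.8% NP40 with benzonase (60 min, 4 °C). The ultracentrifuged supernatant was TMT-labelled and run by LC-MS/MS in three independent experiments.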

| Target | NP40-soluble protein abundance (concentration: 0.1mM) | NP40-soluble protein abundance (concentration: 0.5mM) | NP40-soluble protein abundance (concentration: 1mM) | NP40-soluble protein abundance (concentration: 2mM) | NP40-soluble protein abundance (concentration: 4mM) | NP40-soluble protein abundance (concentration: 6mM) | NP40-soluble protein abundance (concentration: 8mM) | NP40-soluble protein abundance (concentration: 10mM) |
| --- | --- | --- | --- | --- | --- | --- | --- | --- |
| CTSV (UniProt O60911) | 0.983 ± 0.018 | 0.935 ± 0.056 | 0.997 ± 0.05 | 0.992 ± 0.067 | 0.953 ± 0.0099 | 1.01 ± 0.052 | 0.987 ± 0.047 | 1.02 ± 0.045 |
| UniProt O96017 and related entries | 1.04 ± 0.037 | 1.07 ± 0.062 | 0.987 ± 0.029 | 0.98 ± 0.051 | 0.968 ± 0.044 | 0.937 ± 0.042 | 0.933 ± 0.015 | 0.881 ± 0.071 |
| AGFG2 (UniProt O95081) | 1.05 ± 0.06 | 1.09 ± 0.092 | 1.05 ± 0.082 | 1.06 ± 0.097 | 0.984 ± 0.12 | 0.976 ± 0.067 | 1.06 ± 0.075 | 0.954 ± 0.059 |
| UniProt O75367 and related entries | 0.946 ± 0.055 | 0.914 ± 0.042 | 0.969 ± 0.019 | 0.989 ± 0.057 | 1.15 ± 0.055 | 1.26 ± 0.078 | 1.43 ± 0.11 | 1.7 ± 0.082 |
| UniProt O94768 | 0.999 ± 0.12 | 1.08 ± 0.057 | 0.938 ± 0.1 | 1.07 ± 0.038 | 0.928 ± 0.089 | 1.04 ± 0.043 | 0.975 ± 0.071 | 0.992 ± 0.043 |
| COQ9 (UniProt O75208) | 0.904 ± 0.073 | 0.829 ± 0.057 | 0.97 ± 0.016 | 0.949 ± 0.065 | 0.931 ± 0.055 | 0.904 ± 0.068 | 0.878 ± 0.13 | 0.972 ± 0.037 |
| UniProt O75054 and related entries | 1.11 ± 0.081 | 1.09 ± 0.07 | 1.07 ± 0.083 | 1.02 ± 0.1 | 1.02 ± 0.083 | 1.02 ± 0.062 | 1.03 ± 0.072 | 1.02 ± 0.075 |
| ANXA1 (UniProt P04083) | 0.854 ± 0.025 | 0.818 ± 0.074 | 0.895 ± 0.04 | 0.868 ± 0.064 | 0.857 ± 0.061 | 0.86 ± 0.072 | 0.796 ± 0.12 | 0.867 ± 0.082 |
| UniProt O95782 and related entries | 1.03 ± 0.024 | 1.03 ± 0.032 | 0.979 ± 0.049 | 1.02 ± 0.077 | 1.04 ± 0.065 | 1.02 ± 0.092 | 0.972 ± 0.029 | 1 ± 0.013 |
| UniProt O75400 and related entries | 1.02 ± 0.05 | 1.11 ± 0.036 | 1.23 ± 0.083 | 1.25 ± 0.076 | 1.37 ± 0.21 | 1.52 ± 0.24 | 1.81 ± 0.37 | 1.89 ± 0.41 |
| NDUFS3 (UniProt O75489) | 1.02 ± 0.032 | 1.02 ± 0.033 | 1.04 ± 0.026 | 1.06 ± 0.016 | 1.08 ± 0.07 | 1.05 ± 0.056 | 1.06 ± 0.082 | 1.06 ± 0.07 |
| HMGN2 (UniProt P05204) | 0.992 ± 0.2 | 1 ± 0.14 | 1.31 ± 0.23 | 1.46 ± 0.35 | 1.5 ± 0.11 | 1.89 ± 0.35 | 1.7 ± 0.41 | 2.68 ± 0.3 |
| SMNDC1 (UniProt O75940) | 0.935 ± 0.11 | 0.985 ± 0.13 | 1 ± 0.14 | 1.02 ± 0.15 | 1.05 ± 0.16 | 1.1 ± 0.15 | 1.16 ± 0.16 | 1.17 ± 0.16 |
| FUCA1 (UniProt P04066) | 1.04 ± 0.18 | 1.03 ± 0.17 | 0.901 ± 0.1 | 0.881 ± 0.18 | 0.877 ± 0.12 | 0.856 ± 0.11 | 0.942 ± 0.29 | 0.855 ± 0.088 |
| ARIH2 (UniProt O95376) | 0.993 ± 0.044 | 1.01 ± 0.041 | 0.954 ± 0.037 | 0.948 ± 0.068 | 0.954 ± 0.061 | 0.948 ± 0.076 | 0.973 ± 0.07 | 0.94 ± 0.046 |
| UniProt O75822 and related entries | 0.856 ± 0.038 | 0.825 ± 0.074 | 0.908 ± 0.09 | 0.954 ± 0.098 | 1.07 ± 0.17 | 1.32 ± 0.22 | 1.4 ± 0.3 | 1.77 ± 0.39 |
| UniProt O75175 and related entries | 1.01 ± 0.016 | 1.02 ± 0.046 | 1.09 ± 0.028 | 1.18 ± 0.11 | 1.28 ± 0.12 | 1.34 ± 0.12 | 1.4 ± 0.13 | 1.56 ± 0.27 |
| UniProt O75427 and related entries | 0.987 ± 0.066 | 0.999 ± 0.044 | 1.12 ± 0.082 | 1.15 ± 0.26 | 1.27 ± 0.19 | 1.21 ± 0.094 | 1.25 ± 0.23 | 1.2 ± 0.19 |
| ATG7 (UniProt O95352) | 1 ± 0.056 | 1.02 ± 0.059 | 0.982 ± 0.053 | 0.969 ± 0.062 | 0.97 ± 0.091 | 0.963 ± 0.076 | 0.948 ± 0.037 | 0.951 ± 0.031 |
| UniProt P06730 and related entries | 0.967 ± 0.02 | 0.991 ± 0.029 | 0.968 ± 0.04 | 0.962 ± 0.019 | 0.96 ± 0.019 | 0.974 ± 0.015 | 0.946 ± 0.035 | 0.948 ± 0.032 |
| SOD1 (UniProt P00441) | 0.907 ± 0.076 | 0.901 ± 0.084 | 0.922 ± 0.12 | 0.846 ± 0.13 | 0.841 ± 0.13 | 0.848 ± 0.14 | 0.855 ± 0.09 | 0.86 ± 0.1 |
| UniProt P04424 and related entries | 1.06 ± 0.1 | 1.07 ± 0.1 | 0.988 ± 0.09 | 1.06 ± 0.036 | 0.984 ± 0.13 | 0.959 ± 0.036 | 0.953 ± 0.11 | 0.93 ± 0.096 |
| RSL1D1 (UniProt O76021) | 1.02 ± 0.063 | 1.06 ± 0.036 | 1.15 ± 0.06 | 1.2 ± 0.04 | 1.26 ± 0.056 | 1.3 ± 0.034 | 1.28 ± 0.064 | 1.49 ± 0.14 |
| UniProt O75528 and related entries | 1.04 ± 0.072 | 0.978 ± 0.066 | 1.17 ± 0.15 | 1.15 ± 0.049 | 1.18 ± 0.12 | 1.2 ± 0.031 | 1.23 ± 0.14 | 1.32 ± 0.14 |
| UniProt O95298 and related entries | 0.978 ± 0.16 | 0.91 ± 0.1 | 1.19 ± 0.22 | 1.17 ± 0.14 | 1.19 ± 0.15 | 1.16 ± 0.12 | 1.06 ± 0.19 | 1.16 ± 0.26 |
| VPS4B (UniProt O75351) | 0.961 ± 0.052 | 0.965 ± 0.056 | 0.98 ± 0.082 | 0.949 ± 0.095 | 0.931 ± 0.092 | 0.925 ± 0.09 | 0.919 ± 0.077 | 0.917 ± 0.091 |
| CPNE3 (UniProt O75131) | 0.971 ± 0.015 | 0.958 ± 0.051 | 0.87 ± 0.039 | 0.872 ± 0.033 | 0.871 ± 0.017 | 0.852 ± 0.022 | 0.817 ± 0.063 | 0.806 ± 0.073 |
| GPI (UniProt P06744) | 0.939 ± 0.031 | 0.96 ± 0.016 | 0.895 ± 0.04 | 0.889 ± 0.016 | 0.859 ± 0.019 | 0.879 ± 0.012 | 0.847 ± 0.042 | 0.846 ± 0.044 |
| UniProt O75191 and related entries | 1.04 ± 0.022 | 1.01 ± 0.09 | 0.992 ± 0.074 | 0.935 ± 0.068 | 0.94 ± 0.063 | 0.94 ± 0.067 | 0.972 ± 0.061 | 0.906 ± 0.077 |
| UniProt O95456 and related entries | 0.947 ± 0.1 | 0.941 ± 0.078 | 0.913 ± 0.082 | 0.911 ± 0.074 | 0.923 ± 0.063 | 0.91 ± 0.081 | 0.916 ± 0.09 | 0.903 ± 0.088 |

Part of the list above, bar-delimited.
Target | NP40-soluble protein abundance (concentration: 0.1mM) | NP40-soluble protein abundance (concentration: 0.5mM) | NP40-soluble protein abundance (concentration: 1mM) | NP40-soluble protein abundance (concentration: 2mM) | NP40-soluble protein abundance (concentration: 4mM) | NP40-soluble protein abundance (concentration: 6mM) | NP40-soluble protein abundance (concentration: 8mM) | NP40-soluble protein abundance (concentration: 10mM)
SMNDC1 (UniProt O75940) | 0.935 ± 0.11 | 0.985 ± 0.13 | 1 ± 0.14 | 1.02 ± 0.15 | 1.05 ± 0.16 | 1.1 ± 0.15 | 1.16 ± 0.16 | 1.17 ± 0.16
UniProt O75528 and related entries | 1.04 ± 0.072 | 0.978 ± 0.066 | 1.17 ± 0.15 | 1.15 ± 0.049 | 1.18 ± 0.12 | 1.2 ± 0.031 | 1.23 ± 0.14 | 1.32 ± 0.14
